Record: PubChem BioAssay AID504774 (Drosophila RNAi Screening Center, 2011)
The deposit covers about 23,000 reagents; this is an unselected part of those that have a named target and a result. 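Values are quantile-normalised luminescence on an arbitrary scale; higher means more cells surviving MMS.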 Reagents against one gene are numbered here. Further read-outs or replicates are left out here. No sequences are given here.

- Screen: 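Knock-downs that shift viability of MMS-exposed cells relative to untreated ones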 (primary screen)
- System: Drosophila Kc167 cells
- Reagent: long dsRNA against Drosophila genes, about 0.25 µg dsRNA per well
- Timing: about 6 days: 3 days knock-down, then 3 days with or without MMS
- Treatment: methyl methanesulphonate 0.004% (w/v) for 3 days after knock-down
- Detection: 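Viability in wells given MMS, read as ATP luminescence, normalised by quantiles plate by plate and averaged across replicates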
- Reading the numbers: mean viability with MMS and viability with MMS: higher = more surviving cells after MMS

{"gene knocked down": "CG34227", "reagent": 1, "mean viability with MMS": 3.47e6, "viability with MMS, replicate 1": 3.88e6}
{"gene knocked down": "CG34227", "reagent": 2, "mean viability with MMS": 3.40e6, "viability with MMS, replicate 1": 3.75e6}
{"gene knocked down": "CG14427", "reagent": 1, "mean viability with MMS": 3.61e6, "viability with MMS, replicate 1": 4.10e6}
{"gene knocked down": "G6P (Glucose-6-Phosphatase)", "reagent": 1, "mean viability with MMS": 3.42e6, "viability with MMS, replicate 1": 3.85e6}
{"gene knocked down": "CG17684", "reagent": 1, "mean viability with MMS": 3.60e6, "viability with MMS, replicate 1": 4.18e6}
{"gene knocked down": "CG17684", "reagent": 2, "mean viability with MMS": 3.68e6, "viability with MMS, replicate 1": 4.12e6}
{"gene knocked down": "CG42329", "reagent": 1, "mean viability with MMS": 3.56e6, "viability with MMS, replicate 1": 4.10e6}
{"gene knocked down": "CG42329", "reagent": 2, "mean viability with MMS": 3.57e6, "viability with MMS, replicate 1": 4.12e6}
{"gene knocked down": "Atg2 (Autophagy-related 2)", "reagent": 1, "mean viability with MMS": 3.35e6, "viability with MMS, replicate 1": 3.82e6}
{"gene knocked down": "CG11807", "reagent": 1, "mean viability with MMS": 3.61e6, "viability with MMS, replicate 1": 4.20e6}
{"gene knocked down": "CG3184", "reagent": 1, "mean viability with MMS": 3.55e6, "viability with MMS, replicate 1": 4.23e6}
{"gene knocked down": "Atg7 (Autophagy-related 7)", "reagent": 1, "mean viability with MMS": 3.49e6, "viability with MMS, replicate 1": 4.04e6}
{"gene knocked down": "Atg7 (Autophagy-related 7)", "reagent": 2, "mean viability with MMS": 3.72e6, "viability with MMS, replicate 1": 4.32e6}
{"gene knocked down": "Irc (Immune-regulated catalase)", "reagent": 1, "mean viability with MMS": 3.54e6, "viability with MMS, replicate 1": 4.14e6}

Laid out differently: results already given.
gene knocked down	reagent	mean viability with MMS	viability with MMS, replicate 1
Atg2 (Autophagy-related 2)	1	3.35e6	3.82e6
CG11807	1	3.61e6	4.20e6
